Results deposited as PubChem BioAssay AID504791 (Drosophila RNAi Screening Center, 2011)

- Aim: 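Genes whose knock-down strengthens or weakens small-RNA reporter silencing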 (primary screen)
- System: Drosophila S2-derived reporter cells
- Reagent: long dsRNA against Drosophila genes, about 150-250 ng dsRNA per well (siRNA assay); about 80-120 ng (miRNA assay)
- Timing: about 5 days (siRNA assay); about 4 days (miRNA assay)
- Challenge: copper sulfate induction of reporters: 25 µM (siRNA assay); 200 mM stated (miRNA assay), 1-2 days before reading
- Read-out: 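Dual luciferase assay: Renilla to firefly signal ratio in each well, scaled to the mean ratio of its plate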
- Rule for the call: 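a well was a first-pass pick when its plate-scaled ratio rose above 1.5 (siRNA assay) or 1.6 (miRNA assay), or dropped below 0.6; a gene counted only if two separate dsRNAs agreed on retest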
In all, the deposit lists about 23,000 reagents; below is a random part of those that have a named target and a result. In the full data, 199 (0.86%) were called active. 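Plate-scaled ratios behind the calls are not deposited; printed light signals are raw; many rows marked increased or decreased are still called inactive.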 The numbers tell different reagents against one gene apart. The record does not give: the direction of the score.

no.	gene knocked down	reagent no.	stable siRNA reporter change	miRNA reporter change	stable assay Renilla, run 1 (luminescence)	stable assay firefly, run 1 (luminescence)	activity call
1	CG14391	1			7840	4.74e5	inactive
2	CG4678	1			5631	4.39e5	inactive
3	CG4678	2			5643	4.03e5	inactive
4	yellow-f2	1			5236	4.45e5	inactive
5	Sirt4 (Sirtuin 4)	1			4803	2.78e5	inactive
6	PolH (DNA polymerase eta)	1			8799	3.86e5	inactive
7	Cpr78E (Cuticular protein 78E)	1			7979	4.09e5	inactive
8	Herc4 (HECT and RLD domain containing E3 ubiquitin ligase 4)	1			7498	3.95e5	inactive
9	Hmt4-20 (Histone methyltransferase 4-20)	1			8650	3.20e5	inactive
10	Ssl (Suppressor of Stellate-like)	1			6376	3.36e5	inactive
11	h-cup (heineken-cup)	1			8143	4.89e5	inactive
12	eIF3k (eukaryotic translation initiation factor 3 subunit k)	1		reporter ratio lowered past the hit cutoff	14398	5.36e5	inactive
13	Drsl3 (Drosomycin-like 3)	1			2748	2.98e5	inactive
14	lbl (ladybird late)	1			7035	3.24e5	inactive
15	CG42367	1			8058	4.31e5	inactive
16	CG16896	1			14181	2.13e6	inactive
17	peo (pendolino)	1			7790	3.84e5	inactive
18	otk2 (off-track2)	1			5675	2.89e5	inactive
19	CG31735	1			5696	4.58e5	inactive
20	CG13031	1			7592	3.30e5	inactive
21	wap (wings apart)	1			7258	3.40e5	inactive
22	obst-E (obstructor-E)	1			22179	4.47e5	inactive
23	CG17376	1	reporter ratio lowered past the hit cutoff		8834	5.87e5	inactive
24	CG31054 (retired record)	1			8623	6.48e5	inactive
25	Kr (Kruppel)	1			7403	5.43e5	inactive
26	apt (apontic)	1			2.60e5	1.59e6	inactive
27	apt (apontic)	2			3756	3.32e5	inactive
28	Nlg1 (Neuroligin 1)	1			5786	3.46e5	inactive
29	Nlg1 (Neuroligin 1)	2			6022	3.51e5	inactive
30	Nlg1 (Neuroligin 1)	3			6502	4.76e5	inactive
31	Nlg1 (Neuroligin 1)	4			6424	3.26e5	inactive
32	CG13675	1			4263	3.83e5	inactive
33	CG13675	2	reporter ratio raised past the hit cutoff		6943	2.34e5	inactive
34	CG13675	3			4795	3.06e5	inactive

Copied from above, 9 entries:
no.	gene knocked down	reagent no.	stable siRNA reporter change	miRNA reporter change	stable assay Renilla, run 1 (luminescence)	stable assay firefly, run 1 (luminescence)	activity call
20	CG13031	1			7592	3.30e5	inactive
21	wap (wings apart)	1			7258	3.40e5	inactive
22	obst-E (obstructor-E)	1			22179	4.47e5	inactive
23	CG17376	1	reporter ratio lowered past the hit cutoff		8834	5.87e5	inactive
24	CG31054 (retired record)	1			8623	6.48e5	inactive
25	Kr (Kruppel)	1			7403	5.43e5	inactive
26	apt (apontic)	1			2.60e5	1.59e6	inactive
27	apt (apontic)	2			3756	3.32e5	inactive
28	Nlg1 (Neuroligin 1)	1			5786	3.46e5	inactive

Next records follow:
no.	gene knocked down	reagent no.	stable siRNA reporter change	miRNA reporter change	stable assay Renilla, run 1 (luminescence)	stable assay firefly, run 1 (luminescence)	activity call
35	CG42750	1			3663	2.10e5	inactive
36	CG42750	2			7409	5.66e5	inactive
37	CG42750	3			8739	6.48e5	inactive
38	CG42750	4			9171	5.50e5	inactive
39	CG42750	5			7034	4.56e5	inactive
40	Prp6 (pre-mRNA processing factor 6)	1			5199	4.97e5	inactive
41	Prp6 (pre-mRNA processing factor 6)	2			10612	4.17e5	inactive
42	CG30001	1			5258	5.38e5	inactive
43	CG6974	1			7522	3.36e5	inactive
44	l(2)k05819 (lethal (2) k05819)	1			18911	1.03e6	inactive
45	TTLL4A (Tubulin tyrosine ligase-like 4A)	1			29868	1.38e6	inactive
46	Rh4 (Rhodopsin 4)	1			3927	3.69e5	inactive
47	pgc (polar granule component)	1	reporter ratio lowered past the hit cutoff		6906	7.23e5	inactive
48	CG6149	1			7027	3.86e5	inactive
49	crb (crumbs)	1			11458	3.75e5	inactive
50	stai (stathmin)	1			10319	5.42e5	inactive
51	Pi3K59F (Phosphatidylinositol 3-kinase 59F)	1			2.84e5	1.29e6	inactive
52	CG8944	1			4311	3.42e5	inactive
53	CG8944	2			9921	5.63e5	inactive
54	exd (extradenticle)	1			4243	3.30e5	inactive
55	CG4914	1			8502	3.39e5	inactive
56	CG5167	1			6334	3.36e5	inactive
57	CG31523	1			5392	4.21e5	inactive
58	CG31523	2			4280	3.93e5	inactive
